Results published in paper PMC7251106.
Results are given in words; binding and its absence hold for the method and conditions named. In cells and extracts the contact can be indirect. Some results given as binding are weak or reduced against the parent protein; the word gives no strength.

Chains of the proteins cited; added tags and fusions are not shown.
UniProt P48681: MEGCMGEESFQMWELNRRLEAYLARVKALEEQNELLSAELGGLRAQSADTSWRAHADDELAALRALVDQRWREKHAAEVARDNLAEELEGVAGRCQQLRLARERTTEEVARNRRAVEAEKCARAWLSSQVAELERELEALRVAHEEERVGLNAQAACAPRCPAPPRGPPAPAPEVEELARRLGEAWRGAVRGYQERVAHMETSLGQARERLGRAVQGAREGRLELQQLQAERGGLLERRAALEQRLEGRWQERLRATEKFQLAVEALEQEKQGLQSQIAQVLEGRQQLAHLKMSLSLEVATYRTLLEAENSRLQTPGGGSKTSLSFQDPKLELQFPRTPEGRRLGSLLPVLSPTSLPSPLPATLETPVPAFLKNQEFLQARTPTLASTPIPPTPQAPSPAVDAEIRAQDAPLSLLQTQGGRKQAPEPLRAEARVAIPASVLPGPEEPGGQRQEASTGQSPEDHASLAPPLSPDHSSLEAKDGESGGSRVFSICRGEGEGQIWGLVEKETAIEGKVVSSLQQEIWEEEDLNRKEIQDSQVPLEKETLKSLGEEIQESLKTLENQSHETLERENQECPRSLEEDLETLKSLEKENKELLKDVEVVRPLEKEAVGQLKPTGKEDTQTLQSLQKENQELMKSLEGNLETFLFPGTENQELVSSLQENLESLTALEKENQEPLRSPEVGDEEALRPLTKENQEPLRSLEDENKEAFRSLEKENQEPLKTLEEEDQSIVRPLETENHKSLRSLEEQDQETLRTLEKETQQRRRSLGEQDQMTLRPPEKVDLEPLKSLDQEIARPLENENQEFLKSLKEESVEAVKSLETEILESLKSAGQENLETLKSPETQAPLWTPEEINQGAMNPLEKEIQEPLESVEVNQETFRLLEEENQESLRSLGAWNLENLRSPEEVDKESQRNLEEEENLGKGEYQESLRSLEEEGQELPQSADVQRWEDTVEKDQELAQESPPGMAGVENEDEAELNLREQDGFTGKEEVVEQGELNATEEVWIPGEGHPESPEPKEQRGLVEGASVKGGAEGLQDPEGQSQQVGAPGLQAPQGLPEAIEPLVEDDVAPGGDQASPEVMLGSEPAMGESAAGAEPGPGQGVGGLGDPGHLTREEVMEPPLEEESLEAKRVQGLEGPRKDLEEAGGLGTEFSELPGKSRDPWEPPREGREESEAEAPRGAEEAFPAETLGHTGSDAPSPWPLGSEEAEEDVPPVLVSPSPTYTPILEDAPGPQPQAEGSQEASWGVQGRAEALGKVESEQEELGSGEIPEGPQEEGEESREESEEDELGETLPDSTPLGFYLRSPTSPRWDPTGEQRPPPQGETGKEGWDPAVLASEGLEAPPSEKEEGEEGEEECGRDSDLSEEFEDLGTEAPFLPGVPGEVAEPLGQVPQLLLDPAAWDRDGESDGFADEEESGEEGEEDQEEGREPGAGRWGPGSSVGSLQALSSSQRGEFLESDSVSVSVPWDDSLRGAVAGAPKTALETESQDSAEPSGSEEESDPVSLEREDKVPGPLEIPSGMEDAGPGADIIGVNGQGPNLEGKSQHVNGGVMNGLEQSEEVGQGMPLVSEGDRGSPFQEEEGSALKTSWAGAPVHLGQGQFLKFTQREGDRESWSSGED

T1: Vascular endothelial (VE)-cadherin (human (endogenous in HUVEC)) (UniProt P33151)
T1 sequence: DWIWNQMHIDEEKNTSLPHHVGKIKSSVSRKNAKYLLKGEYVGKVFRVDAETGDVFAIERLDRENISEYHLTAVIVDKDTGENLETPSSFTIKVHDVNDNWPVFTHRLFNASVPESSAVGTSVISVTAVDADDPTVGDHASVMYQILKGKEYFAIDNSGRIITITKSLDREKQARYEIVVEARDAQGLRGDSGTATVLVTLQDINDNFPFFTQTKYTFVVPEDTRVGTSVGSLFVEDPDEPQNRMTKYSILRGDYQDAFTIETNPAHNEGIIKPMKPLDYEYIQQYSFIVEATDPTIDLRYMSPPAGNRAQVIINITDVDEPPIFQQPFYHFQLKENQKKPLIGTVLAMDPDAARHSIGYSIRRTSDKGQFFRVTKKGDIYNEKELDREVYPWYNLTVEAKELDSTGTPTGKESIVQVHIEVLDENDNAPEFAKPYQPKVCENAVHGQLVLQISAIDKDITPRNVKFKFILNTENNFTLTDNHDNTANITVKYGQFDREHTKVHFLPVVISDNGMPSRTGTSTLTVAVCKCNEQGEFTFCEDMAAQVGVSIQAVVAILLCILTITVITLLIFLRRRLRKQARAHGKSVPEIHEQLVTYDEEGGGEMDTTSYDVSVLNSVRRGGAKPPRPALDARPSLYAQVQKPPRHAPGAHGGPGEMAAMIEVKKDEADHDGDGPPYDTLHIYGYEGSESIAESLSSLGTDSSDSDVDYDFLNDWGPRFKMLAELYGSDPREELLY


Key:
[1] = molecular target: T1, Vascular endothelial (VE)-cadherin (human (endogenous in HUVEC)); assay: proximity ligation; Duolink PLA on fixed, permeabilised HUVECs treated with ctr or anti-LASSIE GapmeR; PLA events counted per image
[2] = molecular target: nestin (human (endogenous in HUVEC)) (UniProt P48681); assay: co-IP; HUVEC lysate, anti-nestin antibody, VE-cadherin co-precipitated; with or without 100 µg/mL RNase A in the lysis buffer and the IP reaction

binding [1]	binding [2]	Molecule
binds		nestin (from UniProt P48681 1-1621)
	binds	Vascular endothelial (VE)-cadherin (protein, UniProt P33151 48-784) DWIWNQMHIDEEKNTSLPHHVGKIKSSVSRKNAKYLLKGEYVGKVFRVDAETGDVFAIERLDRENISEYHLTAVIVDKDTGENLETPSSFTIKVHDVNDNWPVFTHRLFNASVPESSAVGTSVISVTAVDADDPTVGDHASVMYQILKGKEYFAIDNSGRIITITKSLDREKQARYEIVVEARDAQGLRGDSGTATVLVTLQDINDNFPFFTQTKYTFVVPEDTRVGTSVGSLFVEDPDEPQNRMTKYSILRGDYQDAFTIETNPAHNEGIIKPMKPLDYEYIQQYSFIVEATDPTIDLRYMSPPAGNRAQVIINITDVDEPPIFQQPFYHFQLKENQKKPLIGTVLAMDPDAARHSIGYSIRRTSDKGQFFRVTKKGDIYNEKELDREVYPWYNLTVEAKELDSTGTPTGKESIVQVHIEVLDENDNAPEFAKPYQPKVCENAVHGQLVLQISAIDKDITPRNVKFKFILNTENNFTLTDNHDNTANITVKYGQFDREHTKVHFLPVVISDNGMPSRTGTSTLTVAVCKCNEQGEFTFCEDMAAQVGVSIQAVVAILLCILTITVITLLIFLRRRLRKQARAHGKSVPEIHEQLVTYDEEGGGEMDTTSYDVSVLNSVRRGGAKPPRPALDARPSLYAQVQKPPRHAPGAHGGPGEMAAMIEVKKDEADHDGDGPPYDTLHIYGYEGSESIAESLSSLGTDSSDSDVDYDFLNDWGPRFKMLAELYGSDPREELLY
